Values quoted from earlier work as cited in PMC12377202, “Design, synthesis, and cytotoxic evaluation of quinazoline-based derivatives as VEGER-2 inhibitors: comparative study against EGFR kinase activity, induction of apoptosis, and molecular docking study” (RSC Advances, 2025).

Tested on: WI-38
Details: cited from earlier work

Compound | selectivity index (WI-38 vs HepG2) | selectivity index (WI-38 vs MCF-7) | selectivity index (WI-38 vs PC3)
O=C(Nc1ccc(Oc2nc(Cl)nc3ccccc23)cc1)c1cccnc1 [VIII] | 9.22 | 6.92 | 5.53
O=C(CSc1nc2ccc([N+](=O)[O-])cc2c(=O)n1-c1ccccc1)NNC(=O)c1ccccc1 [VII] | 8.47 | 4.73 | 5.59

Read-outs that look alike come from different tables or passages of the source.
